PubChem BioAssay AID1259405 | NCATS, 2018
Shown is a random part of about 50,000 reagents tested. In the full data, about 4,000 (8%) got an active call. 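Mouse siRNA library applied to hamster cells; one well for each siRNA.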 A number with no mark means an inactive call. The numbers tell different reagents against one gene apart.

Aim: 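Silenced genes that increase secreted GFP made by CHO cells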 (primary screen)
Cell system: Chinese hamster CHO-K1 ovary cells with stable secreted eGFP expression
Knock-down reagent: single siRNA against mouse genes, 0.8 pmol siRNA per well (2 µl of 400 nM stock)
Time to read-out: 3 days
Detection: 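Percent of the per-plate non-targeting control median for intracellular GFP per well by laser scanning cytometry and for cell viability by ATP luminescence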
Scale: GFP, % of control: higher = more GFP per well, higher productivity; viability (ATP), % of control: higher = more viable cells (more ATP)
Hit rule: 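Called active when intracellular GFP, relative to negative control, is at or above 120%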

Target gene	siRNA no.	GFP, % of control	viability (ATP), % of control
Vsig8 (V-set and immunoglobulin domain containing 8)	1	97.9	60.9
Vsig8 (V-set and immunoglobulin domain containing 8)	2	26.1	45.7
Vsig8 (V-set and immunoglobulin domain containing 8)	3	79.2	80.6
Gpr18 (G protein-coupled receptor 18)	1	140 (active)	57
Gpr18 (G protein-coupled receptor 18)	2	84.7	59.7
Gpr18 (G protein-coupled receptor 18)	3	98.9	81.7
Tcstv7a (Tcstv family member 7A)	1	99.8	75.6
Tcstv7a (Tcstv family member 7A)	2	82.7	67.3
Tcstv7a (Tcstv family member 7A)	3	68.8	78.1
H1f3 (H1.3 linker histone, cluster member)	1	75.6	40.3
H1f3 (H1.3 linker histone, cluster member)	2	90.5	102
H1f3 (H1.3 linker histone, cluster member)	3	67.2	49.7
Ankhd1 (ankyrin repeat and KH domain containing 1)	1	96.5	76.2
Ankhd1 (ankyrin repeat and KH domain containing 1)	2	79.8	92.6
Ankhd1 (ankyrin repeat and KH domain containing 1)	3	119	106
Srr (serine racemase)	1	146 (active)	110
Srr (serine racemase)	2	57	64.8
Srr (serine racemase)	3	61.9	64
Tspan12 (tetraspanin 12)	1	95.7	86.4
Tspan12 (tetraspanin 12)	2	114	67.7
Tspan12 (tetraspanin 12)	3	67.3	77.3
Jpt1 (Jupiter microtubule associated homolog 1)	1	108	115
Jpt1 (Jupiter microtubule associated homolog 1)	2	88.8	71
Jpt1 (Jupiter microtubule associated homolog 1)	3	87.7	77.1
Kifap3 (kinesin-associated protein 3)	1	73.5	83.1
Kifap3 (kinesin-associated protein 3)	2	71.7	80.3
Pkn1 (protein kinase N1)	1	99.8	64.5
Pkn1 (protein kinase N1)	2	48.5	43.4
Pkn1 (protein kinase N1)	3	179 (active)	130
Pkn1 (protein kinase N1)	4	98.9	91.5
Pkn1 (protein kinase N1)	5	86	87.3
Pkn1 (protein kinase N1)	6	79.8	89.8
Rigi (RNA sensor RIG-I)	1	55	54.9
Rigi (RNA sensor RIG-I)	2	79.1	40.2
Rigi (RNA sensor RIG-I)	3	149 (active)	176
Mtcp1 (mature T cell proliferation 1)	1	50.8	39.3
Mtcp1 (mature T cell proliferation 1)	2	97.8	57.8
Mtcp1 (mature T cell proliferation 1)	3	81	78.7
Niban1 (niban apoptosis regulator 1)	1	73.6	71.8
Niban1 (niban apoptosis regulator 1)	2	68.3	84.4
Niban1 (niban apoptosis regulator 1)	3	62.4	84.8
Mucl1 (mucin-like 1)	1	83.7	59.8
Mucl1 (mucin-like 1)	2	91.1	98.6
Mucl1 (mucin-like 1)	3	92.4	128
Bhmt2 (betaine-homocysteine methyltransferase 2)	1	101	79.2
Bhmt2 (betaine-homocysteine methyltransferase 2)	2	47.9	69.5
Bhmt2 (betaine-homocysteine methyltransferase 2)	3	69.5	94.2
Syn2 (synapsin II)	1	63.8	48.6
Syn2 (synapsin II)	2	67	59.5
Syn2 (synapsin II)	3	102	53.2

The list goes on (3 carried over from the part before).
Target gene	siRNA no.	GFP, % of control	viability (ATP), % of control
Syn2 (synapsin II)	1	63.8	48.6
Syn2 (synapsin II)	2	67	59.5
Syn2 (synapsin II)	3	102	53.2
Ugdh (UDP-glucose dehydrogenase)	1	67.1	97.6
Ugdh (UDP-glucose dehydrogenase)	2	59.2	79.8
Ugdh (UDP-glucose dehydrogenase)	3	73.2	87.5
Sulf2 (sulfatase 2)	1	91.8	87.5
Sulf2 (sulfatase 2)	2	82.7	103
Sulf2 (sulfatase 2)	3	64.2	70.3
Txlnb (taxilin beta)	1	70.4	65.7
Txlnb (taxilin beta)	2	76.5	76.1
Txlnb (taxilin beta)	3	64.2	61.4
Sdc1 (syndecan 1)	1	67.3	61.8
Sdc1 (syndecan 1)	2	28.8	28.8
Sdc1 (syndecan 1)	3	44.2	45.4
Nppb (natriuretic peptide type B)	1	62.7	61.5
Nppb (natriuretic peptide type B)	2	110	84.2
Nppb (natriuretic peptide type B)	3	82.3	55.3
Zfp322a (zinc finger protein 322A)	1	84.7	81.7
Zfp322a (zinc finger protein 322A)	2	62.6	77
Zfp322a (zinc finger protein 322A)	3	63.2	93.2
Elfn1	1	28.9	25.6
Elfn1	2	128 (active)	99.1
Elfn1	3	82.7	59.1
Cyp4a14 (cytochrome P450, family 4, subfamily a, polypeptide 14)	1	71.3	69
Cyp4a14 (cytochrome P450, family 4, subfamily a, polypeptide 14)	2	83.2	82.7
Cyp4a14 (cytochrome P450, family 4, subfamily a, polypeptide 14)	3	73.5	57.8
Spsb3 (splA/ryanodine receptor domain and SOCS box containing 3)	1	91	87.4
Spsb3 (splA/ryanodine receptor domain and SOCS box containing 3)	2	78.9	74.5
Lair1 (leukocyte-associated Ig-like receptor 1)	1	38.2	28.6
Lair1 (leukocyte-associated Ig-like receptor 1)	2	30	27.6
Lair1 (leukocyte-associated Ig-like receptor 1)	3	36.3	34.7
Resp18 (regulated endocrine-specific protein 18)	1	31.7	68.5
Resp18 (regulated endocrine-specific protein 18)	2	73.6	70.8
Resp18 (regulated endocrine-specific protein 18)	3	74.4	81.8
H2az1 (H2A.Z variant histone 1)	1	45.3	44.6
H2az1 (H2A.Z variant histone 1)	2	53.4	80.5
H2az1 (H2A.Z variant histone 1)	3	69.5	59.9
